# Experimental data reported in the supplement of paper PMC8728848.
# The list shows a part of the results.
# B1: SJCP3842 (Schistosoma japonicum) (protein)
# chain: MFKMRIINLVNISTVLLLINLLQTKSRLVGKENGFMLTVSIYGAQLSDKMTSVPVSWTIDYEDPEKSAFKKLVTDSCDTFSEYVKSQIPKGSVDGQCTSHIFQRPGSGSGVSISLTLSFIYVDVTQPDTVALKTELEKHFANFVTIHSHKITQAQFRINQKAIVIPTGDKDAIDGSKWKIIAIIALVALAIVVIGGFIYICVK
# Columns and labels:
# Experiment in all cases: glycan array binding signal (z-score within array); higher = stronger binding
# Settings in all cases: glycan notation: IUPAC condensed, linker removed
# [1] = molecular target: Man(a1-2)Man(a1-3)[Man(a1-2)Man(a1-6)]Man(a1-6)[Man(a1-2)Man(a1-2)Man(a1-3)]Man
# Method in brief: (§1)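 Columns mapping to the same glycan were averaged after glycan names were converted to IUPAC-condensed notation. The data come from 3228 arrays in the Consortium for Functional Glycomics database, limited to those with an available protein sequence. Binding is reported as a within-array Z-score averaged across arrays of one protein sequence and across linkers.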
# [2] = molecular target: Man(a1-2)Man(a1-3)[Man(a1-2)Man(a1-6)]Man(a1-6)[Man(a1-2)Man(a1-2)Man(a1-3)]Man(b1-4)GlcNAc(b1-4)GlcNAc
# Method in brief: as §1
# [3] = molecular target: Man(a1-2)Man(a1-3)[Man(a1-6)]Man(a1-6)[Man(a1-2)Man(a1-3)]Man(b1-4)GlcNAc(b1-4)GlcNAc
# Method in brief: as §1
# [4] = molecular target: Man(a1-2)Man(a1-6)[Man(a1-3)]Man(a1-6)[Man(a1-2)Man(a1-2)Man(a1-3)]Man
# Method in brief: as §1
# [5] = molecular target: Man(a1-2)Man(a1-6)[Man(a1-3)]Man(a1-6)[Man(a1-2)Man(a1-2)Man(a1-3)]Man(b1-4)GlcNAc(b1-4)GlcNAc
# Method in brief: as §1
# Man(a1-3)[Man(a1-6)]Man = molecular target: Man(a1-3)[Man(a1-6)]Man
# Method in brief: as §1
# [6] = molecular target: Man(a1-3)[Man(a1-6)]Man(a1-6)[Man(a1-2)Man(a1-3)]Man(b1-4)GlcNAc(b1-4)GlcNAc
# Method in brief: as §1
# [7] = molecular target: Man(a1-3)[Man(a1-6)]Man(a1-6)[Man(a1-3)]Man
# Method in brief: as §1
# [8] = molecular target: Man(a1-3)[Man(a1-6)]Man(a1-6)[Man(a1-3)]Man(b1-4)GlcNAc(b1-4)GlcNAc
# Method in brief: as §1
# [9] = molecular target: Man(a1-3)[Man(a1-6)]Man(b1-4)GlcNAc(b1-4)GlcNAc
# Method in brief: as §1
# [10] = molecular target: Man(a1-3)[Man(a1-6)]Man(b1-4)GlcNAc(b1-4)[Fuc(a1-6)]GlcNAc
# Method in brief: as §1
# Man(a1-6)Man = molecular target: Man(a1-6)Man
# Method in brief: as §1
# Man(b1-4)GlcNAc = molecular target: Man(b1-4)GlcNAc
# Method in brief: as §1
# MurNAc(b1-4)GlcNAc = molecular target: MurNAc(b1-4)GlcNAc
# Method in brief: as §1
# Neu5Ac(a2-3)Gal = molecular target: Neu5Ac(a2-3)Gal
# Method in brief: as §1
# [11] = molecular target: Neu5Ac(a2-3)Gal(b1-3)GalNAc
# Method in brief: as §1
# [12] = molecular target: Neu5Ac(a2-3)Gal(b1-3)GalNAc(b1-3)Gal(a1-4)Gal(b1-4)Glc
# Method in brief: as §1
# [13] = molecular target: Neu5Ac(a2-3)Gal(b1-3)GalNAc(b1-4)Gal(b1-4)Glc
# Method in brief: as §1
# [14] = molecular target: Neu5Ac(a2-3)Gal(b1-3)GalNAc(b1-4)[Neu5Ac(a2-3)]Gal(b1-4)Glc
# Method in brief: as §1
# [15] = molecular target: Neu5Ac(a2-3)Gal(b1-3)GalNAc(b1-4)[Neu5Ac(a2-8)Neu5Ac(a2-3)]Gal(b1-4)Glc
# Method in brief: as §1
# [16] = molecular target: Neu5Ac(a2-3)Gal(b1-3)GalNAc6S
# Method in brief: as §1
# [17] = molecular target: Neu5Ac(a2-3)Gal(b1-3)GlcNAc
# Method in brief: as §1
binder,measurement,setting,value
B1,glycan array binding signal (z-score),[1],0.433
same,glycan array binding signal (z-score),[2],-0.987
same,glycan array binding signal (z-score),[3],-0.624
same,glycan array binding signal (z-score),[4],-2.45
same,glycan array binding signal (z-score),[5],-0.995
same,glycan array binding signal (z-score),Man(a1-3)[Man(a1-6)]Man,0.218
same,glycan array binding signal (z-score),[6],0.844
same,glycan array binding signal (z-score),[7],-1.02
same,glycan array binding signal (z-score),[8],-0.013
same,glycan array binding signal (z-score),[9],-0.51
same,glycan array binding signal (z-score),[10],1.76
same,glycan array binding signal (z-score),Man(a1-6)Man,-0.118
same,glycan array binding signal (z-score),Man(b1-4)GlcNAc,-0.285
same,glycan array binding signal (z-score),MurNAc(b1-4)GlcNAc,-0.214
same,glycan array binding signal (z-score),Neu5Ac(a2-3)Gal,0.069
same,glycan array binding signal (z-score),[11],-0.559
same,glycan array binding signal (z-score),[12],0.587
same,glycan array binding signal (z-score),[13],0.958
same,glycan array binding signal (z-score),[14],0.003
same,glycan array binding signal (z-score),[15],-1.47
same,glycan array binding signal (z-score),[16],0.231
same,glycan array binding signal (z-score),[17],0.129

# In a second layout: results already given
binder | measurement | setting | value
B1 | glycan array binding signal (z-score) | [13] | 0.958
same | glycan array binding signal (z-score) | [14] | 0.003
same | glycan array binding signal (z-score) | [15] | -1.47
same | glycan array binding signal (z-score) | [16] | 0.231
